The text below walks through data of patent US9159937B2, “Heteroleptic light-emitting complexes” (SOLVAY SA, priority 2011, dated 2015).

A short description of data set [1]: Photoluminescence emission measurements in 2-methyl-THF solution. The class given is physicochemical. As to conditions: emission maximum, room temperature, ≈10^−5 mol/l in 2-methyl-THF.
The nature of data set [2]: Absolute photoluminescence quantum yield and FWHM in 2-methyl-THF solution. Type of data set: physicochemical. As to conditions: room temperature; for FWHM: full width at half maximum of emission peak, 2-methyl-THF; for Φ: photoluminescence quantum yield, degassed 2-methyl-THF solution.
Data set [3] is described as follows: Photoluminescence quantum yield and CRI of spincoated emissive layer films.

For the compound `[Ir+3].[c-]1ccccc1-c1ccc2ccccc2n1.[c-]1ccccc1-c1ccc2ccccc2n1.[c-]1ccccc1-c1ccc2ccccc2n1` [[Ir(2-PhQ)3], reference compound], the “λmax room T” value in data set [1] is given as 589 nm. In addition, in data set [2], the FWHM worked out at 100 nm and the Φ is 61%.
For [Ir(2-PhQ)2(DMC2)], in that order: 611 nm, 116 nm and 62%.
Turning to [Ir(2-PhQ)2(mc3)], the “λmax room T” value in data set [1] is reported as 624 nm. In data set [2], this compound returned an FWHM of 115 nm and a Φ of 62%.
For [Ir(2-PhQ)2(mc6)], in that order: 624 nm, 115 nm and 56%.
For [Ir(M-PhQ)3] [reference compound], in that order: 584 nm, 97 nm and 80%.
As to [Ir(dmPhQ)2(acac)] [reference compound], in data set [1], the “λmax room T” value is on record as 616 nm. For the same compound, in data set [2], the FWHM is reported as 72 nm and the Φ is given as 72%. Further, the “photoluminescence quantum yield Φ of EML” value in data set [3] (60 nm film, red and blue emitter in high triplet energy host, spincoated on fused silica) turned out to be 72%. Besides, the “color rendering index (CRI) of EML” value in data set [3] (derived from steady-state PL spectra of 60 nm film, red and blue emitter in host) came out at 64.
With [Ir(n-hexPhQ)3] [reference compound], the “λmax room T” value in data set [1] came to 596 nm.
Still for that read-out and setting: under [Ir(tButPhQ)3] [reference compound] stands 593 nm.
